Results: PubChem BioAssay AID1487 (National Center for Advancing Translational Sciences (NCATS), 2009)
Some of the results follow. The main result of the screen is listed elsewhere. These columns were measured beside it and carry no call. Compounds called inactive in the main read-out are mostly missing here. The note in brackets gives the kind of curve behind each potency; many fits are weak.

Experiment: qHTS Assay for Modulators of Lamin A Splicing
Settings: HeLa LMNA splicing GFP/RFP minigene ratio, 48 h
In short: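 Read-out is the ratio of GFP to DsRed2 object intensity, acquired by 488 nm laser-scanning cytometry on HeLa lamin A-EGFP minigene reporter cells. Compound incubation 48 hrs at 37 °C in Opti-MEM with 2% FBS; DMSO 0.5% final.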

[1] = measured here: GFP splicing reporter channel
[2] = measured here: RFP viability control channel

Compound	AC50 [1]	AC50 [2]
Cc1ccccc1-c1nc(-n2ccnc2)c2ccccc2n1	15.8 µM [falling, partial curve]	22.4 µM [falling, partial curve]
CN1/C(=C\C(=O)c2ccccc2Cl)c2ccccc2CC1(C)C	–	15.8 µM [rising, single point]
CC1CCN(c2cc(N3CCOCC3)c([N+](=O)[O-])cc2F)CC1	12.6 µM [rising, single point]	17.8 µM [rising, partial curve]
Cc1ccc(O)c(-n2nc3ccccc3n2)c1	1.12 µM [falling, partial curve, poor fit]	0.631 µM [falling, partial curve, poor fit]
COc1cccc(N2C(=O)N(CC(=O)NCc3cccc(OC)c3OC)c3ccccc3S2(=O)=O)c1	–	5.62 µM [falling, partial curve]
O=[N+]([O-])c1ccccc1CSc1nc2ccccc2o1	–	11.2 µM [rising, partial curve]
Cc1cccc(N2CCN(Cc3nc(-c4ccc(F)cc4F)oc3C)CC2)n1	–	10 µM [falling, partial curve, poor fit]
Cc1cc(C)c(-c2csc(NC(=O)c3cc([N+](=O)[O-])ccc3N3CCOCC3)n2)c(C)c1	11.2 µM [rising, partial curve]	22.4 µM [rising, partial curve]
Cc1cc(C)c(S(=O)(=O)c2ccccc2)c(OC(=O)c2c(Cl)cc(Cl)cc2Cl)n1	–	31.6 µM [rising, single point]
Cc1cc(C(=O)c2ccc(C(C)(C)C)cc2)c(NC(=O)CCl)s1	6.31 µM [falling, partial curve]	–
Cc1ccc(-n2ncc3c(=O)n(CC(=O)N4CCCc5ccccc54)cnc32)cc1C	–	12.6 µM [rising, single point]
N#C/C(=C/c1ccc(N2CCOCC2)o1)c1nc2ccccc2[nH]1	15.8 µM [falling, single point]	15.8 µM [falling, single point]
C/C(=N\O)c1ccc2c3ccccc3n(C)c2c1	5.62 µM [falling, partial curve]	5.01 µM [falling, partial curve]
O=C1Nc2ccccc2S/C1=C/Nc1cccc(Cl)c1	–	35.5 µM [falling, single point]
CCn1c(SCc2ccccc2Cl)nc(=O)c2c(C(=O)OC)cc(C3CC3)nc21	–	28.2 µM [falling, single point]
Cc1cc(/C=C(\C#N)C(=O)NCc2ccco2)c(C)n1-c1ccc(C(=O)O)cc1	–	0.1 µM [falling, full curve]
CCCCCC1CC(CC(=O)Nc2ccc([N+](=O)[O-])cc2)C(=O)O1 (stereo unspecified)	–	35.5 µM [rising, single point]
O=C1OC(N2CCN(c3ccccn3)CC2)c2ccccc21 (stereo unspecified)	–	0.2 µM [rising, full curve, poor fit]
O=C(NCc1cccs1)C1CCCN(S(=O)(=O)c2ccc(Br)s2)C1 (stereo unspecified)	–	35.5 µM [rising, single point]
CCOC(=O)Cc1csc(NC(=O)c2sc3nc4cc(C)ccc4cc3c2N)n1	–	20 µM [rising, partial curve, poor fit]

Laid out differently: entries from further up
COc1cccc(N2C(=O)N(CC(=O)NCc3cccc(OC)c3OC)c3ccccc3S2(=O)=O)c1
  AC50 [2]: 5.62 µM [falling, partial curve]
CCn1c(SCc2ccccc2Cl)nc(=O)c2c(C(=O)OC)cc(C3CC3)nc21
  AC50 [2]: 28.2 µM [falling, single point]
Cc1cc(/C=C(\C#N)C(=O)NCc2ccco2)c(C)n1-c1ccc(C(=O)O)cc1
  AC50 [2]: 0.1 µM [falling, full curve]

Next part.

Compound	AC50 [1]	AC50 [2]
CCOc1ccc(CN(Cc2ccco2)C(c2cccs2)c2nnnn2C(C)(C)C)cc1 (stereo unspecified)	11.2 µM [rising, single point]	25.1 µM [rising, single point]
Cc1cc(C)n2c(SCC(=O)Nc3ccc(F)cc3F)nnc2n1	0.0178 µM [falling, full curve, poor fit]	–
CCOC(=O)c1cc(-c2ccccc2)n(CCC(=O)NC(C)CC)c1C (stereo unspecified)	–	11.2 µM [rising, single point]
COc1cccc(OC)c1OCCCCCc1c(C)n[nH]c1C	–	35.5 µM [rising, single point]
S=C(N/N=C/c1ccccc1Cl)Nc1ccccc1	–	35.5 µM [falling, single point]
O=c1[nH]c2ccccc2n1C1=CCCC1	–	12.6 µM [rising, single point]
O=C(N/N=C/c1ccncc1)/C(=C/c1ccccc1)NC(=O)c1ccccc1	–	2.51 µM [rising, full curve, poor fit]
Cc1ccc2[nH]c(=O)c(CN(Cc3cccs3)Cc3nnnn3Cc3ccccc3)cc2c1	–	35.5 µM [rising, single point]
COc1ccc(/C=C(/C(=O)c2cccs2)N2C=CC=CC2=C(C#N)C#N)cc1	35.5 µM [falling, single point]	–
O=c1c(N2CCc3ccccc3C2)csc2ccc(Br)cc12	3.98 µM [rising, partial curve]	–
Nc1nc(SCC(=O)NN(c2ccccc2)c2ccccc2)n[nH]1	2.24 µM [rising, partial curve, poor fit]	1.12 µM [rising, partial curve]
CC(C)CCN(Cc1ccco1)C(=O)Cn1ncc2c([nH]c3ccccc32)c1=O	3.98 µM [rising, single point]	0.316 µM [rising, single point]
COc1ccc(Oc2nc(C)nc3c2oc2ccccc23)cc1	2.82 µM [rising, single point]	7.08 µM [rising, partial curve]
Cc1cccc(C(=O)Nc2ccc(N3CCN(c4ccc(F)cc4)CC3)c(C(=O)O)c2)c1	0.0282 µM [falling, full curve, poor fit]	–
CCOC(=O)c1cc(-c2ccccc2)n(CCCC(=O)Nc2cc(C)ccc2OC)c1C	–	35.5 µM [falling, single point]
COc1ccccc1Cc1nc2ccccc2nc1SCC(=O)N1CCC(C)CC1	7.08 µM [rising, full curve]	31.6 µM [rising, partial curve]
CCNC(=O)NC(=O)COC(=O)CCCc1nc2ccccc2s1	0.0316 µM [falling, full curve, poor fit]	0.631 µM [falling, full curve]
C=CCn1c(NC(=O)c2ccc(Br)o2)c(S(=O)(=O)c2ccccc2)c2nc3ccccc3nc21	11.2 µM [falling, partial curve]	14.1 µM [falling, partial curve]
CCOc1ccc(C(=O)NCc2ccc3c(c2)CCN3C(=O)c2ccc(C)cc2)cc1OCC	3.98 µM [falling, single point]	–
COC(=O)c1sc(N2C(=O)C(O)=C(C(=O)c3ccc(C)o3)C2c2ccc(F)cc2)nc1C (stereo unspecified)	–	15.8 µM [rising, single point]

Compound	AC50 [1]	AC50 [2]
CC(C)(C)c1ccc(NC(=O)CSc2nnc(-c3n[nH]c4ccccc34)o2)cc1	–	17.8 µM [rising, single point]
COC(=O)c1scc(C)c1N/N=C(\C)c1ccc(F)cc1F	31.6 µM [rising, single point]	–
O=C(Nc1nc(-c2ccc(-c3ccccc3)cc2)cs1)c1cnccn1	–	2.51 µM [rising, full curve, poor fit]
Cc1ccc(S(=O)(=O)Oc2ccc(N3C(=O)C4C5CCC(C5)C4C3=O)cc2)cc1 (stereo unspecified)	1.12 µM [falling, full curve, poor fit]	10 µM [falling, partial curve]
Cc1ccc(NCCC(=O)c2ccc(Cl)c(Cl)c2)cc1	12.6 µM [falling, single point]	20 µM [falling, single point]
Cc1c(Cl)ccc(S(=O)(=O)N2CCN=C2c2ccccc2)c1Cl	–	31.6 µM [rising, single point]
OC(COC(c1ccc(Cl)cc1)c1ccc(Cl)cc1)CN1CCc2ccccc2C1 (stereo unspecified)	–	10 µM [rising, partial curve]
CN(C)CC1CCCCC1OC(=O)c1ccc(Cl)cc1Cl (stereo unspecified)	5.62 µM [rising, single point]	5.62 µM [rising, single point]
CCn1c(-c2ccc(F)cc2)cnc1SCC(=O)N1CCCCC1C (stereo unspecified)	–	35.5 µM [rising, single point]
O=C(NCCC1=CCCCC1)C1CCN(S(=O)(=O)c2ccc(Br)s2)CC1	14.1 µM [rising, single point]	25.1 µM [rising, single point]
COc1ccccc1N1CCN(c2cnccn2)CC1	–	35.5 µM [rising, single point]
O=C(NCCc1c[nH]c2ccccc12)Nc1cccc2ccccc12	–	14.1 µM [rising, partial curve, poor fit]
CC(C)NC(=O)c1cc2nc(-c3ccco3)cc(C(F)(F)F)n2n1	–	14.1 µM [falling, single point]
Cc1ccc(N(CC(=O)Nc2c(C)n(C)n(-c3ccccc3)c2=O)S(C)(=O)=O)c(C)c1	–	1.41 µM [falling, full curve, poor fit]
c1ccc(-c2nnc3ccc(N4CCC5(CC4)OCCO5)nn23)cc1	–	4.47 µM [rising, partial curve, poor fit]
Cc1ccc(C(=O)/C=C/c2ccc(-c3ccccc3[N+](=O)[O-])o2)cc1	35.5 µM [falling, single point]	–
NC(=O)CCSC(=S)N1CCOCC1	0.00398 µM [rising, full curve, poor fit]	–
CC(=O)Nc1sc2c(c1CN1CCN(c3ccccn3)CC1)CCCC2	17.8 µM [rising, partial curve, poor fit]	14.1 µM [rising, partial curve]
